Where two headings read alike, the source gives them in different places.
Conditions: for Mean phenanthrene value obtained with the immunoassay: mean of four water samples

Structure (SMILES): c1ccc2c(c1)ccc1ccccc12 [phenanthrene]
- % Recovery (Phenanthrene added +5.0 ppb): 102%
- Mean phenanthrene value obtained with the immunoassay (Phenanthrene added +5.0 ppb): 5.09 ppb
- % Recovery (Phenanthrene added +7.5 ppb): 108%
- Mean phenanthrene value obtained with the immunoassay (Phenanthrene added +7.5 ppb): 8.13 ppb
- % Recovery (Phenanthrene added +20.0 ppb): 107%
- Mean phenanthrene value obtained with the immunoassay (Phenanthrene added +20.0 ppb): 21.46 ppb
- % Recovery (Phenanthrene added +40.0 ppb): 102%
- Mean phenanthrene value obtained with the immunoassay (Phenanthrene added +40.0 ppb): 40.91 ppb
